PubChem BioAssay AID686938 | Drosophila RNAi Screening Center | 2013
In all, the deposit lists about 23,000 reagents; below is an unselected part of those with a known target gene and a result. Of all reagents, 75 (0.33%) were called active. 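Raw plate signals without normalisation; calls rest on plate z-scores that were not deposited; ratio present for only 364 wells.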 A plus sign joins genes that one reagent is predicted to hit. Not stated in the record: the dose of the treatment.

- Test: 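Knock-downs reducing store-operated calcium influx in Drosophila cells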 (primary screen)
- Cell system: Drosophila S2R+ cells
- Reagent: long dsRNA against Drosophila genes, about 0.25 µg dsRNA per well, roughly 10,000 cells
- Duration: 5 days of knock-down before the calcium assay
- Conditions: thapsigargin (SERCA pump blocker) to empty calcium stores; entry signal taken 4 min after adding it
- Measured: 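Per-well fluo-4 fluorescence in two replicates, unnormalised, measured in resting cells and 4 min after store depletion by the SERCA blocker thapsigargin; ratio of the two present in few wells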
- Reading the numbers: calcium entry signal: higher = stronger calcium signal after store depletion; resting calcium signal: higher = higher resting calcium signal
- Call rule: 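Hit if the duplicate-averaged plate z-score for entry over resting signal is under −3; wells with weak total dye signal (Fmax z < −2) or more than 5 off-targets removed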
- Meaning of the calls: active = strongly reduced calcium entry; inactive = no strong reduction

no.	Gene	dsRNA	calcium entry signal, replicate 1 (fluorescence units)	calcium entry signal, replicate 2 (fluorescence units)	resting calcium signal, replicate 1 (fluorescence units)	resting calcium signal, replicate 2 (fluorescence units)	activity call
1	chinmo	DRSC00292	4.87e7		2.71e7		inactive
2	chinmo	DRSC00485	3.69e7	6.72e7	1.49e7	2.51e7	inactive
3	chinmo	DRSC00509	4.10e7	5.96e7	1.74e7	2.33e7	inactive
4	chinmo	DRSC22413	2.96e7	3.43e7	1.56e7	1.60e7	inactive
5	Mgtor	DRSC05958	3.30e7	3.18e7	1.34e7	1.21e7	inactive
6	Cyp4ac2	DRSC03303	3.46e7	3.45e7	1.60e7	1.69e7	inactive
7	CG31600	DRSC22541	3.29e7	3.09e7	1.75e7	1.32e7	inactive
8	norpA	DRSC18806	3.85e7	3.95e7	1.88e7	1.94e7	inactive
9	CG13157	DRSC06282	3.05e7	4.28e7	1.62e7	1.86e7	inactive
10	CG2017	DRSC12293	4.05e7	4.72e7	1.65e7	2.05e7	inactive
11	fra	DRSC07621	3.21e7	5.02e7	1.64e7	2.08e7	inactive
12	CSN7	DRSC06807	3.15e7	2.85e7	1.54e7	1.62e7	inactive
13	CSN7	DRSC06808	2.66e7	4.04e7	1.49e7	1.57e7	inactive
14	Cpr72Ec	DRSC10449	3.70e7	4.67e7	1.84e7	3.17e7	inactive
15	CG5096	DRSC02813	3.11e7	4.66e7	1.48e7	1.91e7	inactive
16	CG11317	DRSC14299	4.08e7	4.09e7	1.85e7	2.01e7	inactive
17	Coprox	DRSC01996	3.89e7	3.63e7	2.28e7	1.71e7	inactive
18	CG14017	DRSC02348	2.84e7	2.78e7	1.44e7	1.40e7	inactive
19	Vps8	DRSC09705	4.01e7	6.55e7	2.17e7	3.11e7	inactive
20	CG11109	DRSC11633	2.48e7	3.34e7	1.21e7	2.19e7	inactive
21	elfless	DRSC02451	4.64e7	3.77e7	1.98e7	1.79e7	inactive
22	CG7215 + Prx5	DRSC16214	3.10e7	3.53e7	3.25e7	1.50e7	inactive
23	CG7215 + Prx5	DRSC16215	4.03e7	3.39e7	1.82e7	1.50e7	inactive
24	CG13168	DRSC06295	2.93e7	4.83e7	1.38e7	1.91e7	inactive
